According to patent US20050222043A1, “Use of proteasome inhibitor in the treatment of fibrotic diseases” (priority 2002, published 2005):
Peptide text beside a SMILES is read from it. * marks the point of attachment. Cbz = O=C(OCc1ccccc1)*

System: spontaneously hypertensive rats (SH-rats)
Test: Animal study: tolerability, blood pressure, weights, blood values in SH-rats
Format: in vivo, rat
Procedure: Male SH-rats of the same age were obtained from the Jackson Laboratory, Maine, USA. The animals were maintained according to the international guidelines for the keeping und use of laboratory animals. 6-week-old rats were treated for 12 weeks with MG132 (1 mg per kg body weight), 0,1% DMSO as solvent control or with physiological saline (n=10 per group, daily intraperitoneal injection). The animals were fed with a high salt diet (drinking water with 2% sodium chloride). The blood pressure was measured weekly by means of the standard tail-cuff method. The blood values and the standard laboratory markers of the renal and hepatic functions were determined 6 weeks after the treatment and at the end of the study by means of standard methods. At the end of the study, the animals were anaesthetised by means of an intraperitoneal injection of a 20% urethane solution (0,9 g per kg body weight) and the left-ventricular pressure parameters were determined as being described by Saragoca, M. et al. (1981) Hypertension, 3, 380-385. The organs were withdrawn, weighed and either shock-frozen in liquid nitrogen or embedded in paraffin for the histological analysis. Since no difference was observed between the DMSO-treated and the salt-treated SH-rats in respect to the above mentioned parameters, the DMSO-treated animals served as a control for the MG132-treatment.

## CC(C)C[C@@H](C=O)NC(=O)[C@H](CC(C)C)NC(=O)[C@H](CC(C)C)NC(=O)OCc1ccccc1 [MG132, Z-Leu-Leu-Leu-al] (Cbz-Leu-Leu-Leu-aldehyde)
1 mg/kg MG132
  HG/KG (heart weight/body weight): 4.1 ± 0.34 mg/g
  Heart Weight: 1.18 ± 0.07 g
1 mg/kg MG132, tail-cuff
  Systolic BD (blood pressure): 191.43 ± 11.2 mm Hg
12 weeks
  change in heart weight (in words): no significant change
  change in systolic blood pressure (in words): no significant change
